Results are given in words; binding and its absence hold for the method and conditions named. In cells and extracts the contact can be indirect. Some entries that bind do so weakly or less than the wild type. Tags and fused reporters may be left off the sequences shown.
Columns and labels:
[1] = target: T1, mouse Elongator protein 3, C-terminal Flag (pCS2+-C-Flag) (mouse) (UniProt Q9CZX0); assay: co-IP; HEK293 cells transfected with the indicated plasmids, 48 h, with or without MG132 for 6-8 h before harvest; lysis in 50 mM Tris-HCl pH 7.4, 150 mM NaCl, 5 mM EDTA, 1% Triton X-100; Flag-M2 beads, 4 °C, 4 h; Western blot with antibodies against the tags
T1 sequence: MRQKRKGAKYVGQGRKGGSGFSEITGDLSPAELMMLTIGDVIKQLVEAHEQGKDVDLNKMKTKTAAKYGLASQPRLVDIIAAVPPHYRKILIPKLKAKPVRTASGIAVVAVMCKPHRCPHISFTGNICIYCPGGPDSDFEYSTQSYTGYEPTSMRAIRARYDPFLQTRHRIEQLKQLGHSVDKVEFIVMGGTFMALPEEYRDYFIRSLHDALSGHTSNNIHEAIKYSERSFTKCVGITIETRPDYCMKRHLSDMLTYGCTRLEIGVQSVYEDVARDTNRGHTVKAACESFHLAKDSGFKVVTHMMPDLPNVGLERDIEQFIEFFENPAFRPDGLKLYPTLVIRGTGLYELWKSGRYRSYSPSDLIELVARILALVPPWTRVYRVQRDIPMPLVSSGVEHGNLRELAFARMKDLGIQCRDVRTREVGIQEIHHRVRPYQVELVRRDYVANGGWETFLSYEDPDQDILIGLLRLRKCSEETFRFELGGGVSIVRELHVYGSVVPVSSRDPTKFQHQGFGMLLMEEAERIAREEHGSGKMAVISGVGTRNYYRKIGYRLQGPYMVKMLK

Sequences of proteins named here, by UniProt entry; tags and fusion partners are left off.
UniProt Q02085: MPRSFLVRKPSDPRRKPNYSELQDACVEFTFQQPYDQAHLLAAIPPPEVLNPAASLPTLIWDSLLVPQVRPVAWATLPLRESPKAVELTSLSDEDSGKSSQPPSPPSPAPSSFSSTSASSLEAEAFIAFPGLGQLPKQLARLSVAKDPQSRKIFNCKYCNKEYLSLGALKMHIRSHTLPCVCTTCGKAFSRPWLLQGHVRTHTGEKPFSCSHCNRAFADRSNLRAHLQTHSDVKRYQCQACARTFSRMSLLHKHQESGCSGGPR

[2] = target: mouse Snail1, C-terminal Flag (pCS2+-C-Flag), full length (mouse) (UniProt Q02085); assay: as above
[3] = target: T1, mouse Elongator protein 3, C-terminal Flag (pCS2+-C-Flag) (mouse); assay: co-IP; co-IP of mElp3 with xSlug (Supplementary Fig. S1a); cells and tags not told in the text shown

mouse Snail1, N-terminal Myc (pCS2+-N-Myc), full length (from UniProt Q02085 1-264)
binding [1]: binds

B1: mouse Elongator protein 3, N-terminal Myc (pCS2+-N-Myc) (enzyme, UniProt Q9CZX0-2 1-566)
chain: T1 sequence
binding [2]: binds

B2: Xenopus Slug (Snail2) (protein, UniProt Q91924 1-266)
chain: MPRSFLVKKHFNSAKKPNYGELDNHTVIISPFLYERYPVSVLPQPDIYSSVAYSPITVWTGLLHPPLPSDLSPLSGYPSSLGRVSPPPQSDTSSKDHSGSESPISDEEERLQTKLSDSHAIEAEKFQCSLCSKTYSTFSGLAKHKQLHCDAQSRKSFSCKYCEKEYVSLGALKMHIRTHTLPCVCKICGKAFSRPWLLQGHIRTHTGEKPFSCPHCNRAFADRSNLRAHLQTHSDVKKYQCKNCSKTFSRMSLLHKHEESGCCVAH
binding [3]: binds
